Results as given in the supplement of paper PMC12823440, “Inhibitors supercharge kinase turnover through native proteolytic circuits” (Nature, 2025).
The list shows a part of the results. The calls rarely recur for the same compound in another form.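 In K562 cells expressing nanoluciferase-fused kinases, luminescence was recorded at 4 h intervals between 2 and 18 h, normalized as percent of control with DMSO at 100% and a positive control at 0%. A significant (2 sigma) signal drop marks a time point as decreased. The authors' rule for a hit is not shown and takes in more than the number of time points.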

Protein sequences, listed by entry. Tags and fused reporters are not part of them. Lines headed by an entry give the natural chain unless they say otherwise; changes in a name come on top.
UniProt P31749: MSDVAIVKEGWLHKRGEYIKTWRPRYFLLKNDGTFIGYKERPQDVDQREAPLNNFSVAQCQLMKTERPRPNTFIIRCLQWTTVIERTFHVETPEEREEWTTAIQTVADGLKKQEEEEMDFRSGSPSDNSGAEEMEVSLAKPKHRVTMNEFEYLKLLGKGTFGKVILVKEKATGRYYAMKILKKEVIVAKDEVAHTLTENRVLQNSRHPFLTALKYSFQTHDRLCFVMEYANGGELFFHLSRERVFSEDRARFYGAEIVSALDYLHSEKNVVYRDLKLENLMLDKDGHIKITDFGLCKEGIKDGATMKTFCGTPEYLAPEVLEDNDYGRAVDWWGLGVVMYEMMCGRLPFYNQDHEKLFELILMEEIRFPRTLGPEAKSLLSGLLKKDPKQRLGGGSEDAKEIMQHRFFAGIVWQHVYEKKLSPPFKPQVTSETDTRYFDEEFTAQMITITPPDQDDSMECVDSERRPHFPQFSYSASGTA
UniProt O14965: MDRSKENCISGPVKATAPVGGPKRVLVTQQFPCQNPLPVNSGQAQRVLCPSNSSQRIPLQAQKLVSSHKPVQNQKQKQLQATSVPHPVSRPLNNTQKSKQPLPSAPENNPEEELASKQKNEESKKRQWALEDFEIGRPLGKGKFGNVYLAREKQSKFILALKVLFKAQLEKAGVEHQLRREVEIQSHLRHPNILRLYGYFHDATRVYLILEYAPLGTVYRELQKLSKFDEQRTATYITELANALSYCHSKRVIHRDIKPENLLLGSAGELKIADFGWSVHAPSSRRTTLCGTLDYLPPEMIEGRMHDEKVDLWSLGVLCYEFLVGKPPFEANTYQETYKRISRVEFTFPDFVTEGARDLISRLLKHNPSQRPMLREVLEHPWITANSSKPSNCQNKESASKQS
UniProt Q96GD4, whole entry: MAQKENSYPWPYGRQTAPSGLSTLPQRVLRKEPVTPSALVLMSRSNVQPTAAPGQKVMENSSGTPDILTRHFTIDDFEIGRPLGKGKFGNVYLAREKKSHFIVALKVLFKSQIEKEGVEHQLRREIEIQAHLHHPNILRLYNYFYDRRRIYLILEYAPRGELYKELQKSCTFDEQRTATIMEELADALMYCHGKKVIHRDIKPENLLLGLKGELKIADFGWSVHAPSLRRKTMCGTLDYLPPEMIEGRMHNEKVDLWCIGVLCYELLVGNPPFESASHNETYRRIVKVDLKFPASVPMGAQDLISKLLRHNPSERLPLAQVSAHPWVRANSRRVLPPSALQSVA
UniProt Q9UQB9: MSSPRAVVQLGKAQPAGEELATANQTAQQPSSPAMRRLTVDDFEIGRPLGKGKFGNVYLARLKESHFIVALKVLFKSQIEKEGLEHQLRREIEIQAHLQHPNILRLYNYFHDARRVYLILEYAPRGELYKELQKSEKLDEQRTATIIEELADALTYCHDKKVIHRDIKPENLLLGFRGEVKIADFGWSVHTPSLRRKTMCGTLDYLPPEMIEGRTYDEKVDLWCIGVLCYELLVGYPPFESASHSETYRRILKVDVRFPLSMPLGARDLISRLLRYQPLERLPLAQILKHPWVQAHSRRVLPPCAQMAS
UniProt P51451: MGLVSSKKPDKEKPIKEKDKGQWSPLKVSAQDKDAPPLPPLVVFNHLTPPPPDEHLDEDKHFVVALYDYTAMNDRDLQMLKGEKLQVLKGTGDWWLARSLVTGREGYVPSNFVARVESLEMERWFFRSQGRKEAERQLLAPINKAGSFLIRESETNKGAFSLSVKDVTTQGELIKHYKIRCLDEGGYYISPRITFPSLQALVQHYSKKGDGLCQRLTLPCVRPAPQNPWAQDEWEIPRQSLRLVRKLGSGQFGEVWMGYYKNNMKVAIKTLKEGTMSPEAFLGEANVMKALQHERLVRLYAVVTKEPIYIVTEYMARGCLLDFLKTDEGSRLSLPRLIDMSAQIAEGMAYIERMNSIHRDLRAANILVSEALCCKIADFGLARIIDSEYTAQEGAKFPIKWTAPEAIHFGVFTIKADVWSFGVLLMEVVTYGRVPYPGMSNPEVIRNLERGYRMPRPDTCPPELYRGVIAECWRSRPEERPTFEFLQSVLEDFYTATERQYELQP
UniProt P51813: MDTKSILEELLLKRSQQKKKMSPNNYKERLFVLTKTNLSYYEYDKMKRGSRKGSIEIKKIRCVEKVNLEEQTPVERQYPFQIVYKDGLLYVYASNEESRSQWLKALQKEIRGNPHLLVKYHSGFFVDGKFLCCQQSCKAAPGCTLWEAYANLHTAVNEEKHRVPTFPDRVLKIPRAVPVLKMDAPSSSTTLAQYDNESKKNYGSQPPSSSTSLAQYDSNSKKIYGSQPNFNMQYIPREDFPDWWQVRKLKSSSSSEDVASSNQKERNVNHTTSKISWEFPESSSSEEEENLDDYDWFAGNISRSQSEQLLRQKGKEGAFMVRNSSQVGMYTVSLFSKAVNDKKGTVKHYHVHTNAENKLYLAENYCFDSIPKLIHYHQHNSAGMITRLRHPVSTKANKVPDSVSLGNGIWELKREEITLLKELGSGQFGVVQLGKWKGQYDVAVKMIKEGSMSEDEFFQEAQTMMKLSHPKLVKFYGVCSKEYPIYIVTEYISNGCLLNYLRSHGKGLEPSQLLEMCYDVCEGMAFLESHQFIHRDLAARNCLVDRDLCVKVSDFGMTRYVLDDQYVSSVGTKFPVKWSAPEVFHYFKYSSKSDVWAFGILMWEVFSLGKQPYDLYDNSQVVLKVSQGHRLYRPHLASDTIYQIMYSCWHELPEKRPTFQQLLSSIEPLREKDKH
UniProt P15056, whole entry, looked up: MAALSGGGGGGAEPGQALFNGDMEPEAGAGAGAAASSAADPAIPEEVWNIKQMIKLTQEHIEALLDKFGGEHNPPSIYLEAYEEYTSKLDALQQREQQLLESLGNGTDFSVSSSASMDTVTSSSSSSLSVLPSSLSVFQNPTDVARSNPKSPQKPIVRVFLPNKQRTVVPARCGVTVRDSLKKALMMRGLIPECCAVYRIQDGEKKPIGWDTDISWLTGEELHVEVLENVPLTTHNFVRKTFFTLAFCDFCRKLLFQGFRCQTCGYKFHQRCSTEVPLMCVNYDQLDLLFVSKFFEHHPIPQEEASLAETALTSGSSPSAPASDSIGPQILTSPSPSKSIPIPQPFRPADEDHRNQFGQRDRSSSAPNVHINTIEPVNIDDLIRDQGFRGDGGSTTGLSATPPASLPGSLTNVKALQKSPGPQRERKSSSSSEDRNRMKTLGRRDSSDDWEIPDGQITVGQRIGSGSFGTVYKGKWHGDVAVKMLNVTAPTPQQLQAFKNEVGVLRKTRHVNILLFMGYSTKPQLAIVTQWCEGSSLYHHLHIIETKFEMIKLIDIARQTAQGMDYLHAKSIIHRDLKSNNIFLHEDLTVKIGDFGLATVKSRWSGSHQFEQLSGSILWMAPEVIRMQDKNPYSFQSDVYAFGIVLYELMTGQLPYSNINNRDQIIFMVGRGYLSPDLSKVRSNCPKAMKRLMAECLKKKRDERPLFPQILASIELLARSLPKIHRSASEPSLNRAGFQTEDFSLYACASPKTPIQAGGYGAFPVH
UniProt Q06187: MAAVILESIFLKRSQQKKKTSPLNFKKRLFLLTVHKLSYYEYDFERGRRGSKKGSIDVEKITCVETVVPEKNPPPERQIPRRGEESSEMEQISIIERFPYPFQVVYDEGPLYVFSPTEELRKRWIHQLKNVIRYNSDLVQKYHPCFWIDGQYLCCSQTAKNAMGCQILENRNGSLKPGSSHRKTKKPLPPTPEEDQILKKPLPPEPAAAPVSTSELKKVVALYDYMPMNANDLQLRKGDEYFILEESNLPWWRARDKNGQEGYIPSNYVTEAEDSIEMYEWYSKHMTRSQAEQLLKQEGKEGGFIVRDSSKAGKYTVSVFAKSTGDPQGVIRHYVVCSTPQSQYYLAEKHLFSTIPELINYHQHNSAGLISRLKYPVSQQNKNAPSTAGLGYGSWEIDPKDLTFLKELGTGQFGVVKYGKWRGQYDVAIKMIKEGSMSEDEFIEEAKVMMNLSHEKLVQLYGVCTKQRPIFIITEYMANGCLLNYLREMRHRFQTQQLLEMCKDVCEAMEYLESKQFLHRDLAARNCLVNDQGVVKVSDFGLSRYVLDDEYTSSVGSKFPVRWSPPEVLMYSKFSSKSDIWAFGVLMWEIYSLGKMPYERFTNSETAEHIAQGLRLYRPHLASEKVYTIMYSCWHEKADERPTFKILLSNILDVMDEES
UniProt Q9UQM7, whole entry: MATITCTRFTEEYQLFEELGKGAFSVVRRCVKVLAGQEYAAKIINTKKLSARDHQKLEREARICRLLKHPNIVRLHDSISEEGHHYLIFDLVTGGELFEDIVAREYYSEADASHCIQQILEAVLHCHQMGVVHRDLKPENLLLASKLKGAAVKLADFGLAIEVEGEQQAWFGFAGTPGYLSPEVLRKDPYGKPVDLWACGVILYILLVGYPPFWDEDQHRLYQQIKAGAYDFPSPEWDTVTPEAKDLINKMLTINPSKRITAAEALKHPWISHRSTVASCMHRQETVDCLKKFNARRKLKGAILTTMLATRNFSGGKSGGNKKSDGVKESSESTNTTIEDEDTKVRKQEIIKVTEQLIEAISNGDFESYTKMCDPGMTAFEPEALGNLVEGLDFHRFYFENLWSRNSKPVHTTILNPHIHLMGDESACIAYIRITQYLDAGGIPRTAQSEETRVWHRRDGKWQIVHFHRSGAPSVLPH
UniProt Q13555: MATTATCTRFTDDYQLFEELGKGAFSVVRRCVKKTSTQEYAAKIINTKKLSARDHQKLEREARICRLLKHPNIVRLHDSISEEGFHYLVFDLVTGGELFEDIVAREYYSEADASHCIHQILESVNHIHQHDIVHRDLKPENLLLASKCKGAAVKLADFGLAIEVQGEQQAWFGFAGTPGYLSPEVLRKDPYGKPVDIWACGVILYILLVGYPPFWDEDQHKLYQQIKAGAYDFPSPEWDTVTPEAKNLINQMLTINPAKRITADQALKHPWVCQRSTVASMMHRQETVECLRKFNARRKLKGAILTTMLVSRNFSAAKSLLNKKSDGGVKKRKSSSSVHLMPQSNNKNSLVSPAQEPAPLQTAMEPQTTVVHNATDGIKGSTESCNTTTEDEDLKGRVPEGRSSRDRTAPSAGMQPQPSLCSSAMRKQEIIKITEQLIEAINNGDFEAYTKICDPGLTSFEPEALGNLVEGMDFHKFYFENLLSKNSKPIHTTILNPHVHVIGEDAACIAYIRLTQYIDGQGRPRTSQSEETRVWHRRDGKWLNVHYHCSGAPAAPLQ
UniProt Q15131: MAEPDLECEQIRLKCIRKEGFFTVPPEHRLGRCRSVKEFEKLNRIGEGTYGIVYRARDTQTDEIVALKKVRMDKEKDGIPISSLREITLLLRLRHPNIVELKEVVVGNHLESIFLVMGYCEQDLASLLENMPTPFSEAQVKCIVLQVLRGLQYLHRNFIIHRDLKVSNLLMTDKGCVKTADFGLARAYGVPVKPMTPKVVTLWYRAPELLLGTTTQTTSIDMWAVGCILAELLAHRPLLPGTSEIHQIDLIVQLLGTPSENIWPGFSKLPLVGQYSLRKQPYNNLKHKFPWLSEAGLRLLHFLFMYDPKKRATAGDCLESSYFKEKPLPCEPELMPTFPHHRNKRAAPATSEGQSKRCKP
UniProt P11802: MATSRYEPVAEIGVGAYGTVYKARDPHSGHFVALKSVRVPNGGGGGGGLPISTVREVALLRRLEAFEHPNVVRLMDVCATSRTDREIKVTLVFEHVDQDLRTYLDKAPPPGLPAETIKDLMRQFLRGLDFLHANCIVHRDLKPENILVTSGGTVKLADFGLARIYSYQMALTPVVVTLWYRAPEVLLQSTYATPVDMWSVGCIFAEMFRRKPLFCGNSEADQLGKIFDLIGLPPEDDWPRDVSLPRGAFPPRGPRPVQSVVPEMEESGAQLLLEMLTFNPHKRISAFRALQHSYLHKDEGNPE
UniProt Q00535, whole entry, looked up: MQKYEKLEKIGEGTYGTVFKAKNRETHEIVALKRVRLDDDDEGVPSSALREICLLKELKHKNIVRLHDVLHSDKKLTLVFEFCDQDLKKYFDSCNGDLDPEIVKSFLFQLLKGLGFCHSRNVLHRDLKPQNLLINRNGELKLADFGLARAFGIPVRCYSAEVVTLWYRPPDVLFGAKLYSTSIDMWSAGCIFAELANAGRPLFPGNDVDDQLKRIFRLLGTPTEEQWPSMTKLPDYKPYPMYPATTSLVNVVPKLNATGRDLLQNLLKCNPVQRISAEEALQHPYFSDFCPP
UniProt Q00534, whole entry: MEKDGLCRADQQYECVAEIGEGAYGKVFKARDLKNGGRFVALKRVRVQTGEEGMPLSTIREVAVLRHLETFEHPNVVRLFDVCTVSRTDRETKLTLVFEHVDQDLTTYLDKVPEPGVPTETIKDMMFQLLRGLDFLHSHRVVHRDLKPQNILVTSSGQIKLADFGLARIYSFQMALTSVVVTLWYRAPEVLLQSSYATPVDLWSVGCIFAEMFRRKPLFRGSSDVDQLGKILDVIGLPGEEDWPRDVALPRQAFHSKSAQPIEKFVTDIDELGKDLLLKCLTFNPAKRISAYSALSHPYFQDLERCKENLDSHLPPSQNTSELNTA

Assays:
Test in all cases: kinase-Nluc reporter destabilization hit call (1 = scored as downregulated) (binary); higher = compound decreases kinase abundance
Conditions in all cases: K562; 2-18 h
ABL1 = ABL1 (UniProt P00519)
AKT1 = AKT1 (UniProt P31749)
ALK = ALK (UniProt Q9UM73)
ARAF = ARAF (UniProt P10398)
AURKA = AURKA (UniProt O14965)
AURKB = AURKB (UniProt Q96GD4)
AURKC = AURKC (UniProt Q9UQB9)
BLK = BLK (UniProt P51451)
BMX = BMX (UniProt P51813)
BRAF = BRAF (UniProt P15056)
BRAF_V600E = test system: BRAF_V600E
BTK = BTK (UniProt Q06187)
CAMK2A = CAMK2A (UniProt Q9UQM7)
CAMK2G = CAMK2G (UniProt Q13555)
CDK10 = CDK10 (UniProt Q15131)
CDK2 = CDK2 (UniProt P24941)
CDK3 = CDK3 (UniProt Q00526)
CDK4 = CDK4 (UniProt P11802)
CDK5 = CDK5 (UniProt Q00535)
CDK6 = CDK6 (UniProt Q00534)

Measured: kinase-Nluc reporter destabilization hit call

COc1ccc2c(c1)[nH]c1c(C)nccc12 [Harmine] (10 µM)
inactive: ABL1 = 0 | AKT1 = 0 | ALK 0 | ARAF 0 | AURKA 0 | AURKB 0 | AURKC 0 | BLK 0 | BMX 0 | BRAF 0 | BRAF_V600E 0 | BTK 0 | CAMK2A 0 | CAMK2G 0 | CDK10 = 0 | CDK2 = 0 | CDK3 = 0 | CDK4 = 0 | CDK5 = 0 | CDK6 = 0

CC(=O)OC(C)(C)/C=C/C(=O)[C@](C)(O)[C@H]1[C@H](O)C[C@@]2(C)[C@@H]3CC=C4[C@@H](C=C(O)C(=O)C4(C)C)[C@]3(C)C(=O)C[C@]12C [Cucurbitacin E] (2.5 µM)
active: ABL1 = 1
inactive: AKT1 = 0 | ALK 0 | ARAF 0 | AURKA 0 | AURKB 0 | AURKC 0 | BLK 0 | BMX 0 | BRAF 0 | BRAF_V600E 0 | BTK 0 | CAMK2A 0 | CAMK2G 0 | CDK10 = 0 | CDK2 = 0 | CDK3 = 0 | CDK4 = 0 | CDK5 = 0 | CDK6 = 0

CC1=C[C@]23C(=O)[C@@H](C=C(CO)[C@@H](O)[C@]2(O)[C@H]1O)[C@H]1[C@@H](C[C@H]3C)C1(C)C [Ingenol] (10 µM)
inactive: ABL1 = 0 | AKT1 = 0 | ALK 0 | ARAF 0 | AURKA 0 | AURKB 0 | AURKC 0 | BLK 0 | BMX 0 | BRAF 0 | BRAF_V600E 0 | BTK 0 | CAMK2A 0 | CAMK2G 0 | CDK10 = 0 | CDK2 = 0 | CDK3 = 0 | CDK4 = 0 | CDK5 = 0 | CDK6 = 0

CCCCNc1nc(N)c2[nH]c(=O)n(Cc3ccc(C)nc3)c2n1 (10 µM)
inactive: ABL1 = 0 | AKT1 = 0 | ALK 0 | ARAF 0 | AURKA 0 | AURKB 0 | AURKC 0 | BLK 0 | BMX 0 | BRAF 0 | BRAF_V600E 0 | BTK 0 | CAMK2A 0 | CAMK2G 0 | CDK10 = 0 | CDK2 = 0 | CDK3 = 0 | CDK4 = 0 | CDK5 = 0 | CDK6 = 0

CC(=O)c1c(O)c(C)c(O)c(Cc2c(O)c3c(c(C(=O)/C=C/c4ccccc4)c2O)OC(C)(C)C=C3)c1O [Rottlerin] (2 µM)
inactive: ABL1 = 0 | AKT1 = 0 | ALK 0 | ARAF 0 | AURKA 0 | AURKB 0 | AURKC 0 | BLK 0 | BMX 0 | BRAF 0 | BRAF_V600E 0 | BTK 0 | CAMK2A 0 | CAMK2G 0 | CDK10 = 0 | CDK2 = 0 | CDK3 = 0 | CDK4 = 0 | CDK5 = 0 | CDK6 = 0

CCN1CCN(C(=O)Cc2ccc(Nc3ncc(F)c(Nc4ccc(C(=O)Nc5ccccc5Cl)cc4)n3)cc2)CC1 (2.5 µM)
inactive: ABL1 = 0 | AKT1 = 0 | ALK 0 | ARAF 0 | AURKA 0 | AURKB 0 | AURKC 0 | BLK 0 | BMX 0 | BRAF 0 | BRAF_V600E 0 | BTK 0 | CAMK2A 0 | CAMK2G 0 | CDK10 = 0 | CDK2 = 0 | CDK3 = 0 | CDK4 = 0 | CDK5 = 0 | CDK6 = 0

N#CC(C#N)=Cc1ccc([N+](=O)[O-])c(O)c1 (10 µM)
inactive: ABL1 = 0 | AKT1 = 0 | ALK 0 | ARAF 0 | AURKA 0 | AURKB 0 | AURKC 0 | BLK 0 | BMX 0 | BRAF 0 | BRAF_V600E 0 | BTK 0 | CAMK2A 0 | CAMK2G 0 | CDK10 = 0 | CDK2 = 0 | CDK3 = 0 | CDK4 = 0 | CDK5 = 0 | CDK6 = 0

C=CC(=O)N[C@H]1C=C(C)c2c(-c3cnc4ccccc4c3)c3c(N)ncnc3n2C1 (10 µM)
inactive: ABL1 = 0 | AKT1 = 0 | ALK 0 | ARAF 0 | AURKA 0 | AURKB 0 | AURKC 0 | BLK 0 | BMX 0 | BRAF 0 | BRAF_V600E 0 | BTK 0 | CAMK2A 0 | CAMK2G 0 | CDK10 = 0 | CDK2 = 0 | CDK3 = 0 | CDK4 = 0 | CDK5 = 0 | CDK6 = 0

O=C(O)c1sc2cc(Cl)ccc2c1Cl (10 µM)
inactive: ABL1 = 0 | AKT1 = 0 | ALK 0 | ARAF 0 | AURKA 0 | AURKB 0 | AURKC 0 | BLK 0 | BMX 0 | BRAF 0 | BRAF_V600E 0 | BTK 0 | CAMK2A 0 | CAMK2G 0 | CDK10 = 0 | CDK2 = 0 | CDK3 = 0 | CDK4 = 0 | CDK5 = 0 | CDK6 = 0

COC[C@H]1OC(=O)c2coc3c2[C@@]1(C)C1=C(C3=O)[C@@H]2CCC(=O)[C@@]2(C)C[C@H]1OC(C)=O [Wortmannin] (2.5 µM)
inactive: ABL1 = 0 | AKT1 = 0 | ALK 0 | ARAF 0 | AURKC 0 | BLK 0 | BMX 0 | BRAF 0 | BRAF_V600E 0 | BTK 0 | CAMK2A 0 | CAMK2G 0 | CDK10 = 0 | CDK2 = 0 | CDK3 = 0 | CDK4 = 0 | CDK5 = 0 | CDK6 = 0
active: AURKA 1 | AURKB 1

C=C[C@H]1CN2CC[C@]3(C(=O)Nc4ccccc43)[C@@H]2C[C@@H]1/C(=C\OC)C(=O)OC [Corynoxeine] (2 µM)
inactive: ABL1 = 0 | AKT1 = 0 | ALK 0 | ARAF 0 | AURKA 0 | AURKB 0 | AURKC 0 | BLK 0 | BMX 0 | BRAF 0 | BRAF_V600E 0 | BTK 0 | CAMK2A 0 | CAMK2G 0 | CDK10 = 0 | CDK2 = 0 | CDK3 = 0 | CDK4 = 0 | CDK5 = 0 | CDK6 = 0
